{"sequences": {"note": "The chains behind the UniProt entries cited, without tags or fusion partners.", "UniProt Q00975, whole entry, looked up": "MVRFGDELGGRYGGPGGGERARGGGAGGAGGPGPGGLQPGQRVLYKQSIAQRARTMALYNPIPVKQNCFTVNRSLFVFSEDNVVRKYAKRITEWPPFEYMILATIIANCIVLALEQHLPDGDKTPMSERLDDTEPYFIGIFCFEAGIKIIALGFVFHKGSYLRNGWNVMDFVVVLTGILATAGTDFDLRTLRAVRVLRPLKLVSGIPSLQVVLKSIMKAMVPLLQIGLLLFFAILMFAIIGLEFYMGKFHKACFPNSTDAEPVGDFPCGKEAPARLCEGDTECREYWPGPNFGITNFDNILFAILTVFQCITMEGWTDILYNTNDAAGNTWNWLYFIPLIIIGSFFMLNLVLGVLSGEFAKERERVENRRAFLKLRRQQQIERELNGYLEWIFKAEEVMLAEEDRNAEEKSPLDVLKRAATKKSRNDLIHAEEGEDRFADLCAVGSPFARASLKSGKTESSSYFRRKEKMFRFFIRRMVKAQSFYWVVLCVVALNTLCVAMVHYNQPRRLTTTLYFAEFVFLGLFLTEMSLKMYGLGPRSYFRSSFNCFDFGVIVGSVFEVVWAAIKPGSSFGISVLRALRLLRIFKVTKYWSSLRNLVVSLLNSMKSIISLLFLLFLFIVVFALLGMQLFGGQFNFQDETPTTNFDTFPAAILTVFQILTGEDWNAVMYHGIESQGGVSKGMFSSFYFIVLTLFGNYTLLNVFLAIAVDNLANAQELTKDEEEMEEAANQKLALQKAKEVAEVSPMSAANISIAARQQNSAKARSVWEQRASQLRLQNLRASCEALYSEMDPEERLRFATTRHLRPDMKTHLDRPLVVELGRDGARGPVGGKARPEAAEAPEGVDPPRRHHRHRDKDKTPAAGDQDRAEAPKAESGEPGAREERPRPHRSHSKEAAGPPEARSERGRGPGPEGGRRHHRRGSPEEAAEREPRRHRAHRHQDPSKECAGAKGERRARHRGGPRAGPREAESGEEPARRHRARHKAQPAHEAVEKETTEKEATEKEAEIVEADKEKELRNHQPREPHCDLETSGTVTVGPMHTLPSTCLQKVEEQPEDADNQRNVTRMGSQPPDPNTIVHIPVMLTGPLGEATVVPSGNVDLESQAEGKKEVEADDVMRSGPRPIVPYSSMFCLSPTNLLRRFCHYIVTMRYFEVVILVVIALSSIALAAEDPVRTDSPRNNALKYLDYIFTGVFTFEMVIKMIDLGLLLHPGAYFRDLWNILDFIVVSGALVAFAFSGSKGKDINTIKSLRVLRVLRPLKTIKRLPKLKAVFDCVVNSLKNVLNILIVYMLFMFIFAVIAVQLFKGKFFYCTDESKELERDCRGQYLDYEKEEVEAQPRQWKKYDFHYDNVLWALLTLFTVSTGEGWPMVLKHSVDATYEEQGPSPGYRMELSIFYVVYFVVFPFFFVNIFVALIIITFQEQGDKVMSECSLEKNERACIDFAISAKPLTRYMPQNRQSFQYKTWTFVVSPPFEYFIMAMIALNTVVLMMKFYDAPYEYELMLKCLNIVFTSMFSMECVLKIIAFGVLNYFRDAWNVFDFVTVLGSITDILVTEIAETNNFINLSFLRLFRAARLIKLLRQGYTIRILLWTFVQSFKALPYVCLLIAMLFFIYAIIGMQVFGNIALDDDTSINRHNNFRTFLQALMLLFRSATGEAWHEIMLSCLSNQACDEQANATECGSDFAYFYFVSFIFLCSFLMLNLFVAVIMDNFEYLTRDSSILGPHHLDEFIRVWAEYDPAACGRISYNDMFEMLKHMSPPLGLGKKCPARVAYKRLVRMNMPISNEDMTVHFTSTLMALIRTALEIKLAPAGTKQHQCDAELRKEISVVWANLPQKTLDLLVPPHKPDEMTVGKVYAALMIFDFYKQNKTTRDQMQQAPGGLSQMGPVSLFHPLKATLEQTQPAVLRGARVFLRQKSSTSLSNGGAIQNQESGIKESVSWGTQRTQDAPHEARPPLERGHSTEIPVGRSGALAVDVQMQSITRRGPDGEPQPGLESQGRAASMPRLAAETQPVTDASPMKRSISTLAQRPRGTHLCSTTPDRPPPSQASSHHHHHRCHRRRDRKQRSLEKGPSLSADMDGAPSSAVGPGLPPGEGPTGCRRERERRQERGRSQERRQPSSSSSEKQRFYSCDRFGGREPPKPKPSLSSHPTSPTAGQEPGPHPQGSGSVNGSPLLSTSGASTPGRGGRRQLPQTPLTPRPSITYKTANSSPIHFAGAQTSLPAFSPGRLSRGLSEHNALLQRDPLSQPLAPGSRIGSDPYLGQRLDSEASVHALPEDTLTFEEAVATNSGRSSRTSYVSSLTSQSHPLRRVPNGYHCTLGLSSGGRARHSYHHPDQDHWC"}, "source": "PubChem BioAssay AID2073", "about": "(Sanford-Burnham Center for Chemical Genomics, 2009)", "note": "Hit rate of the full screen: of about 290,000 compounds, about 570 (0.2%) were called active. This list was built around the results that the source calls inconclusive (neither active nor inactive); the mix of calls is not that of the screen. Cut-off read from the data, not from the text of the source: active = inhibition mostly above about 51% (no sharp cut-off); inconclusive = no clear call, values can overlap the other calls; inactive = mostly below about 53%.", "data": [{"biological_target": "Voltage-dependent N-type calcium channel subunit alpha-1B (Homo sapiens) (UniProt Q00975)", "assay": "disruptors of CaV2.2 binding to Mint1 – biochemical, HTRF (AID 2073)", "conditions": "HTRF protein-protein interaction, Mint1-CaV2.2; at 20 µM; stronger effect = higher value", "values": [{"compound": "Nc1cc(N)c(OCC(F)(F)F)cc1OCC(F)(F)F", "inhibition": "inconclusive: 56.4%"}, {"compound": "CC(C)c1nnc(SCC(=O)N2CCc3ccccc32)n1C", "inhibition": "inconclusive: 87.5%"}, {"compound": "O=C(/C=C/c1ccccc1)Nc1nc(-c2ccncc2)cs1", "inhibition": "active: 54.1%"}, {"compound": "Cc1ccc(NC(=O)/C=C\\C(=O)O)c([N+](=O)[O-])c1", "inhibition": "inconclusive: 60.7%"}, {"compound": "CCOC(=O)N1CCN(CC(=O)Nc2c(C(=O)OC)[nH]c3ccccc23)CC1", "inhibition": "inconclusive: 70.4%"}, {"compound": "COc1ccc(N)cc1-n1c(C)ccc1C", "inhibition": "inconclusive: 53.2%"}, {"compound": "Cc1cccc(N/N=C2/COC(C)(C)CC2=O)c1", "inhibition": "inactive: 4.2%"}, {"compound": "[O-]/[N+](=C\\c1cccc(Br)c1)c1ccccc1", "inhibition": "inconclusive: 68.2%"}, {"compound": "COc1cccc(Nc2c(Nc3cccc(OC)c3)c(=O)c2=O)c1", "inhibition": "inconclusive: 66.6%"}, {"compound": "CC1=C(C(=O)OC2CCCC(C)C2)C(c2ccccc2)NC(=O)N1", "note": "(stereo unspecified)", "inhibition": "inconclusive: 52.2%"}, {"compound": "O=C(c1csc2c1CCCC2)N1CCN(c2ccccc2)CC1", "inhibition": "inactive: -0.9%"}, {"compound": "CCOC(=O)C1CCN(c2cc3c(cc2NC(=O)c2cc(OC)ccc2Br)n(C)c(=O)n3C)CC1", "inhibition": "inconclusive: 55.6%"}, {"compound": "CCCCNC(=O)COC(=O)c1ccccc1F", "inhibition": "inconclusive: 72.1%"}, {"compound": "CC(=O)Nc1cccc(-n2nnc(SCC(=O)N(C)c3ccccc3)n2)c1", "inhibition": "inconclusive: 62.6%"}, {"compound": "CCOC(=O)c1cc2c(N)c(C(=O)c3cc(C#N)c(SC)nc3C)sc2nc1C", "inhibition": "inactive: 8.2%"}, {"compound": "COC(=O)c1sccc1NC(=O)c1ccc(C(C)C)cc1", "inhibition": "inactive: 1%"}, {"compound": "COC(=O)c1[nH]c2ccc(C)cc2c1NC(=O)NC1CCCCC1", "inhibition": "inconclusive: 61%"}, {"compound": "Cc1ccccc1C(=O)NC(C(N)=O)P(=O)(OC(C)C)OC(C)C", "note": "(stereo unspecified)", "inhibition": "inactive: -2.5%"}, {"compound": "CCOC(=O)N1CCC(N(CCOC)C(=O)Nc2ccc(CC)cc2)CC1", "inhibition": "inconclusive: 65.9%"}, {"compound": "O=C(c1c[nH]c2ccccc12)N1CCN(c2ccccc2)CC1", "inhibition": "inconclusive: 60.7%"}, {"compound": "CC(=O)Oc1ccc(-n2c(=O)c3ccccc3c3ccccc3c2=O)cc1", "inhibition": "inconclusive: 88.5%"}, {"compound": "O=C(NCC(F)(F)F)Nc1nnc(C(F)(F)F)s1", "inhibition": "inconclusive: 50.4%"}, {"compound": "O=C(Nc1ccc(/C=C/c2nc3ccccc3o2)cc1)c1cccc(C(F)(F)F)c1", "inhibition": "inconclusive: 59.8%"}, {"compound": "O=C1C2=C(C(c3ccccc3)=NCCN2)C(c2cccc([N+](=O)[O-])c2)N1c1ccccc1", "note": "(stereo unspecified)", "inhibition": "inconclusive: 71.1%"}, {"compound": "COC(CNC(=O)c1ccc2nc3ccccc3c(=O)n2c1)OC", "inhibition": "inconclusive: 50.4%"}, {"compound": "CCC(C)[C@@H](NC(=O)OC(C)(C)C)c1nnc(S(=O)(=O)Cc2cccc(C)c2)o1", "note": "(stereo partly specified)", "inhibition": "inconclusive: 67.9%"}, {"compound": "Cc1cccc(CSc2nnc(C)c(=O)n2N)c1", "inhibition": "inconclusive: 64.5%"}, {"compound": "Cn1c(=N)n(CC(=O)c2ccc(Br)s2)c2ccccc21", "inhibition": "inconclusive: 86%"}, {"compound": "N#CC1=C2SCN(Cc3ccco3)CN2C(=O)CC1c1ccccc1F", "note": "(stereo unspecified)", "inhibition": "inactive: 84.1%"}, {"compound": "COc1ccc(-c2nc(N)nc(C(F)(F)F)c2-c2csc(C)n2)c(O)c1", "inhibition": "inconclusive: 66.1%"}, {"compound": "O=C(c1ccc2c(c1)OCO2)C1CCCN(C(=O)Nc2ccc(F)cc2F)C1", "note": "(stereo unspecified)", "inhibition": "inconclusive: 78.1%"}, {"compound": "CCn1c(SCC(N)=O)nc2c1c(=O)n(C)c(=O)n2C", "inhibition": "inconclusive: 74%"}, {"compound": "CCCCOC(=O)/C(=C/C=C/c1ccccc1)NC(=O)c1ccccc1", "inhibition": "inactive: 7.4%"}, {"compound": "CCOC(=O)c1c(C)nc2sc(C(N)=O)c(N)c2c1-c1ccccc1", "inhibition": "inconclusive: 52.6%"}, {"compound": "Nc1ccc2nc(-c3cc(Cl)c(N)c(Cl)c3)[nH]c2c1", "inhibition": "inactive: 39.9%"}, {"compound": "C/C(CC(=O)Nc1ccc(C)c(Cl)c1)=N\\NC(=O)C1CCCCC1", "inhibition": "inconclusive: 56.1%"}, {"compound": "COc1ccc(NC(=O)c2noc(C(C)C)c2[N+](=O)[O-])cc1", "inhibition": "inconclusive: 83.4%"}, {"compound": "CN(CC1CCCN(CCc2ccc(Cl)cc2)C1)C(=O)c1ccc2nc[nH]c2c1", "note": "(stereo unspecified)", "inhibition": "inconclusive: 56.8%"}, {"compound": "N=C1c2ccccc2CN1c1ccc(S(=O)(=O)N2CCCCC2)cc1", "inhibition": "inconclusive: 67.4%"}, {"compound": "O=C(NC1CCCc2ccccc21)c1cccc(S(=O)(=O)N2CCN(c3ccccc3)CC2)c1", "note": "(stereo unspecified)", "inhibition": "inconclusive: 51.7%"}, {"compound": "Cc1ccc(C(=O)c2ccccc2C(=O)OCC(=O)NC(C)(C)C)cc1", "inhibition": "inactive: -3.7%"}, {"compound": "Cc1cccc(-c2oc3ccc(-c4ccc5c(c4)OCO5)cc3c2C(=O)OCc2ccc(O)cc2)c1", "inhibition": "inconclusive: 63.9%"}, {"compound": "CCN1CCn2c3c(c4cccc(C)c42)CCCC31", "note": "(stereo unspecified)", "inhibition": "inconclusive: 83.1%"}, {"compound": "COc1cc(-c2nc3ccc(N4CCN(C)CC4)cc3[nH]2)cc(OC)c1OC", "inhibition": "inconclusive: 66.7%"}, {"compound": "CCOC(=O)CN(C#N)c1nc(C)cc(C)n1", "inhibition": "inconclusive: 63.1%"}, {"compound": "COc1ccc(C(=O)NCCc2cccc(Cl)c2)cc1OC1CCN(C(C)=O)CC1", "inhibition": "inconclusive: 63.3%"}, {"compound": "Cc1ccc(C(=O)c2cnc3cc4c(cc3c2S(=O)(=O)c2ccccc2)OCCO4)cc1", "inhibition": "inconclusive: 55.3%"}, {"compound": "CC(C)CSc1ncnc2c1oc1nc3c(cc12)COC(C)(C)C3", "inhibition": "inconclusive: 50.4%"}, {"compound": "Cc1n[nH]c(C)c1-c1nc2ccccc2[nH]1", "inhibition": "inconclusive: 56.6%"}, {"compound": "N=C1S/C(=C\\c2ccc(-c3cccc(Cl)c3)o2)C(=O)N1c1nccs1", "inhibition": "inactive: 35.6%"}, {"compound": "Cc1csc(SCC(=O)Nc2sccc2C#N)n1", "inhibition": "inconclusive: 87.4%"}, {"compound": "O=C(NCCCN=C1NS(=O)(=O)c2ccccc21)c1ccncc1", "inhibition": "inconclusive: 57.7%"}, {"compound": "O=C1C2C3C=CC(c4ccccc4)(C2C(=O)N1c1cccc(Cl)c1)C1C(=O)N(c2cccc(Cl)c2)C(=O)C31", "note": "(stereo unspecified)", "inhibition": "inconclusive: 56%"}, {"compound": "Cc1ccc(S(=O)(=O)/N=C/c2ccco2)cc1", "inhibition": "inconclusive: 59.4%"}, {"compound": "CCOC(=O)C1CCN(C(=O)Nc2ccc3nc(C)c(C)nc3c2)CC1", "inhibition": "inactive: 36%"}, {"compound": "C=CCNc1oc(COc2ccc(C)cc2)nc1C#N", "inhibition": "inconclusive: 53.8%"}, {"compound": "NC(=O)c1ccc2nc(-c3ccccc3)c(-c3ccccc3)nc2c1", "inhibition": "inactive: 4.7%"}, {"compound": "CC1(C)CC2CC(C)(CN2C(=S)Nc2ccccc2)C1", "note": "(stereo unspecified)", "inhibition": "inactive: 12.7%"}, {"compound": "CC(=O)N1C(=O)N(C)C2C1N(C)C(=O)N2C(C)=O", "note": "(stereo unspecified)", "inhibition": "inconclusive: 81.8%"}, {"compound": "Cc1cc(C)c2nc(-c3cccnc3)cc(C(=O)Nc3ccc(S(=O)(=O)Nc4onc(C)c4C)cc3)c2c1", "inhibition": "inactive: 31.4%"}, {"compound": "COc1ccc(C2N(C(=O)c3ccccc3)CCN2C(=O)c2ccc(C)cc2)cc1", "note": "(stereo unspecified)", "inhibition": "inactive: -6.5%"}, {"compound": "CC1=C(C(N)=O)C(c2cccs2)NC(=S)N1", "note": "(stereo unspecified)", "inhibition": "inconclusive: 68.4%"}, {"compound": "COc1ccc(OC)c(NS(=O)(=O)c2cccc3cccnc23)c1", "inhibition": "inconclusive: 55.3%"}, {"compound": "Clc1ss/c(=N\\c2ccccn2)c1Cl", "inhibition": "inactive: 6.4%"}, {"compound": "CCC(=O)N1c2ccccc2[C@@H](N(C(C)=O)c2ccccc2)C[C@H]1C", "inhibition": "inconclusive: 83.1%"}, {"compound": "CC(=O)c1sc2nc(CSc3nnnn3-c3ccccc3)[nH]c(=O)c2c1C", "inhibition": "active: 80.6%"}, {"compound": "COc1ccccc1CO/N=C/NC(=O)c1c(OC)ccnc1Oc1ccc(F)cc1", "inhibition": "inconclusive: 72.1%"}, {"compound": "COc1ccc2nc3cccc(OC)c3nc2c1", "inhibition": "active: 61.8%"}, {"compound": "CC(C)CCN1NC2(CCCC(C)C2)NC1=S", "note": "(stereo unspecified)", "inhibition": "inconclusive: 65.2%"}, {"compound": "COc1ccc(/C=C2\\SC(=O)N(CCC(=O)Nc3ccc(S(=O)(=O)Nc4nccs4)cc3)C2=O)cc1", "inhibition": "inactive: 25.3%"}, {"compound": "Cc1nnc(NC(=O)CSc2nccn2Cc2ccccc2)s1", "inhibition": "inconclusive: 90%"}, {"compound": "O=C(Nc1ncn[nH]1)c1ccccc1O", "inhibition": "inconclusive: 53.8%"}, {"compound": "CCOc1ccc(N(CC(=O)NN=C2CCCC2)S(C)(=O)=O)cc1", "inhibition": "inconclusive: 53.5%"}, {"compound": "O=C(OCc1cc(=O)n2c(n1)sc1ccccc12)c1ccc(O)cc1O", "inhibition": "active: 60.2%"}, {"compound": "Fc1ccc2nc(N3CCOCC3)sc2c1", "inhibition": "inconclusive: 78.4%"}, {"compound": "Cc1ccc2c(c1)C1C=CCC1C(C(=O)O)N2", "note": "(stereo unspecified)", "inhibition": "inactive: 39.2%"}, {"compound": "COc1cc(C)c(C(C)C)cc1S(=O)(=O)n1cnc(C)c1", "inhibition": "inconclusive: 66.4%"}, {"compound": "Cc1ccccc1-c1nc(CS(=O)(=O)CC(=O)N2CCCCC2)c(C)o1", "inhibition": "inconclusive: 66.6%"}, {"compound": "O=C(O)c1cccc(NC(=O)c2ccc3c(c2)C(=O)N(c2cccc([N+](=O)[O-])c2)C3=O)c1", "inhibition": "inactive: 26.4%"}, {"compound": "O=C(CSc1ccsc1[N+](=O)[O-])NCCc1ccccc1", "inhibition": "inconclusive: 59.3%"}, {"compound": "NC(=O)CC(NC(=O)Cc1ccc(Cl)cc1)c1ccc(NCCc2ccccc2F)c([N+](=O)[O-])c1", "note": "(stereo unspecified)", "inhibition": "inconclusive: 65.1%"}, {"compound": "CC1=NN(c2ccccc2)C(=O)C1N=Nc1ccc(S(N)(=O)=O)cc1", "note": "(stereo unspecified)", "inhibition": "inconclusive: 51%"}, {"compound": "Cc1ccc(-c2cnc(-c3ccncc3)o2)cc1", "inhibition": "inconclusive: 57.7%"}, {"compound": "CC1CCN(C(=O)c2ccc3c(c2)OCO3)CC1", "inhibition": "inconclusive: 72.8%"}, {"compound": "CCN(CC)CCCNC(=O)c1cc2c(=O)n(CC)c3ccccc3c2s1", "inhibition": "inconclusive: 82.5%"}, {"compound": "O=C(NNC(=S)NC(=O)c1ccccc1)c1ccc([N+](=O)[O-])cc1", "inhibition": "inactive: -13%"}, {"compound": "CCCc1cc(C(=O)Nc2ccn(Cc3ccc(C)cc3)n2)no1", "inhibition": "inconclusive: 97.2%"}, {"compound": "CCOC(=O)C1=C(C)NC(C)=C(C(=O)OCC)C1C(=O)OCC(=O)NC(C)C", "inhibition": "inconclusive: 92.9%"}, {"compound": "O=C(O)C1CCC(N2C(=O)c3cccc([N+](=O)[O-])c3C2=O)CC1", "note": "(stereo unspecified)", "inhibition": "inactive: 5.9%"}, {"compound": "C/C(CC(O)c1ccc2ccccc2n1)=N/O", "note": "(stereo unspecified)", "inhibition": "inconclusive: 54%"}, {"compound": "COCCCn1c(=N)c(C(=O)NCC2CCCO2)cc2c(=O)n3cccc(C)c3nc21", "note": "(stereo unspecified)", "inhibition": "inconclusive: 56.3%"}]}]}
